Results: the supplement of paper PMC10849652
The other results are listed elsewhere or left out.

Amino acid sequences for entries named in this document (tags omitted). A change or cut given only in a name is not applied to a line headed by its entry.
UniProt P25815: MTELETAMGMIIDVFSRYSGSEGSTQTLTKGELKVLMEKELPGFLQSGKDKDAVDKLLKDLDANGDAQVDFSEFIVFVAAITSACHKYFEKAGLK
UniProt Q9BQE4, whole entry, looked up: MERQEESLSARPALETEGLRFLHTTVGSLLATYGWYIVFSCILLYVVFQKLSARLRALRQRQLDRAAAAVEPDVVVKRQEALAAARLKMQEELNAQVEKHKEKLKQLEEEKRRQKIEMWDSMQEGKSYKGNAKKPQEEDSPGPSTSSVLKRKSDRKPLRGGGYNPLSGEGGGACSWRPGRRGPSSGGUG
UniProt Q13228: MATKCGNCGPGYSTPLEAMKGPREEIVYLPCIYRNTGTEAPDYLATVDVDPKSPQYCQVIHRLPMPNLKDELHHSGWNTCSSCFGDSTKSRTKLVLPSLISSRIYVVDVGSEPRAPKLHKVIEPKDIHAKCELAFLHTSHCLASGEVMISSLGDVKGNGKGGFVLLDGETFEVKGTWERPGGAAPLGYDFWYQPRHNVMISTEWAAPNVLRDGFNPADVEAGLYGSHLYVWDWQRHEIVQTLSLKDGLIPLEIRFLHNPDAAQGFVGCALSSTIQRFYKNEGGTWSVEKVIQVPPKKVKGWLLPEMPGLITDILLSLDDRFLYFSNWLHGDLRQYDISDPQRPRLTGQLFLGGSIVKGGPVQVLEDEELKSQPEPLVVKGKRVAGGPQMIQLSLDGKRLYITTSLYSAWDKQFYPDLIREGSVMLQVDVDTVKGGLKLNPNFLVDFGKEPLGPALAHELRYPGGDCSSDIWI
UniProt O95104: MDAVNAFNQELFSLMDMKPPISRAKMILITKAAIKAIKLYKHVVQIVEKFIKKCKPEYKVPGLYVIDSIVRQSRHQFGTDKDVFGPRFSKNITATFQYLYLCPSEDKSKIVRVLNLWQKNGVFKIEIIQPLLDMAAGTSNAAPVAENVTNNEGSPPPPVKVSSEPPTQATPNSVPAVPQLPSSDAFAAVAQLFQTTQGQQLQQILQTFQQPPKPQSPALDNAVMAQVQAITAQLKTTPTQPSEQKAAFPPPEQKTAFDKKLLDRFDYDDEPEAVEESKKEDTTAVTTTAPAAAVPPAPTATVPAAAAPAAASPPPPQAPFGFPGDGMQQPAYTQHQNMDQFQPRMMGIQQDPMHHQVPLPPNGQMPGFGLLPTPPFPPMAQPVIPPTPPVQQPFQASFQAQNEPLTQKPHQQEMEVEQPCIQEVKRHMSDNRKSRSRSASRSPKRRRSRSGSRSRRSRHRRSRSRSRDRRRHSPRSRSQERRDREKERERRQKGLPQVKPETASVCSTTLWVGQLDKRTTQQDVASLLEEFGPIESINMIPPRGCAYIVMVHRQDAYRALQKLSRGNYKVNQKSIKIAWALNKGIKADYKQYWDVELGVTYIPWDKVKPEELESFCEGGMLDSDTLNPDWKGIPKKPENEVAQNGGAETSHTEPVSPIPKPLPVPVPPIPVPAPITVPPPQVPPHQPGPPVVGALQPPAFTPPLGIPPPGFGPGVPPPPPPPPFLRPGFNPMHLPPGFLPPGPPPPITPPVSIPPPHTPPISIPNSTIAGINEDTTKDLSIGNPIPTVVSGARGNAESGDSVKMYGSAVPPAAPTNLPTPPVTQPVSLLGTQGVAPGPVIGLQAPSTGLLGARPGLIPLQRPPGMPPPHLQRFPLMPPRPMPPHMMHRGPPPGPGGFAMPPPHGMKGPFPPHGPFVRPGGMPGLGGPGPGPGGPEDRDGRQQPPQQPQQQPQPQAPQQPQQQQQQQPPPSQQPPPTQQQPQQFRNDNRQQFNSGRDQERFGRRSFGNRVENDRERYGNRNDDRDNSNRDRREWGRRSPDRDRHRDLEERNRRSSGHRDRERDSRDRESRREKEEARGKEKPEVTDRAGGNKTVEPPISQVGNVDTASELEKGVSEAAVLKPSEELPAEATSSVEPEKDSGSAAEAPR
UniProt Q6SZW1: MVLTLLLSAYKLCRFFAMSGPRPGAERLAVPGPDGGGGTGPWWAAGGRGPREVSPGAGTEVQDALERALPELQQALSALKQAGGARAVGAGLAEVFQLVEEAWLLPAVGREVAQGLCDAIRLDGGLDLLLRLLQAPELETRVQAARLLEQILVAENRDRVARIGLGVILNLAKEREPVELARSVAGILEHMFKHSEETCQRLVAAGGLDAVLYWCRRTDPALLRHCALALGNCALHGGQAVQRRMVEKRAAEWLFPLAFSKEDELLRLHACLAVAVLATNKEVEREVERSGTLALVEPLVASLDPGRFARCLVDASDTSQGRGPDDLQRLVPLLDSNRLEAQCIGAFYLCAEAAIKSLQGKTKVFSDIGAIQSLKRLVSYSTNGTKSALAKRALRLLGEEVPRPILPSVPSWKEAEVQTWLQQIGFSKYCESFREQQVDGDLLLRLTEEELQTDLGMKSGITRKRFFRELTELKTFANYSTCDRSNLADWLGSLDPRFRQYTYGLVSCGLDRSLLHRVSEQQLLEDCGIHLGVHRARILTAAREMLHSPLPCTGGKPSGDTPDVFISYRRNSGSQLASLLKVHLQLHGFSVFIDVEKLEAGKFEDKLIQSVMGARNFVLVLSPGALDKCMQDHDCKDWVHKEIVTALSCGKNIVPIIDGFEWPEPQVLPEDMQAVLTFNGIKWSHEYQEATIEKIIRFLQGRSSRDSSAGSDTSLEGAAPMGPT
UniProt Q9UIL1: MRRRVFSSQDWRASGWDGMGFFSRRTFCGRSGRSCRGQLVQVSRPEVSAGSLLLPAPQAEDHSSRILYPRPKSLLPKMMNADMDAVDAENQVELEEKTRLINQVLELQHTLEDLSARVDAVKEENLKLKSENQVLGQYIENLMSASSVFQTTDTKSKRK
UniProt Q9BWG6: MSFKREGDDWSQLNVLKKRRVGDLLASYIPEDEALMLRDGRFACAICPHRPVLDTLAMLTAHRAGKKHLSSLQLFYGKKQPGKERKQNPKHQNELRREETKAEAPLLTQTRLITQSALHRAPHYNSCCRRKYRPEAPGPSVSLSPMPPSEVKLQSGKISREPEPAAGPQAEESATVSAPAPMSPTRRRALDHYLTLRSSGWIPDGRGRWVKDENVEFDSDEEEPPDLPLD
UniProt Q96LT4: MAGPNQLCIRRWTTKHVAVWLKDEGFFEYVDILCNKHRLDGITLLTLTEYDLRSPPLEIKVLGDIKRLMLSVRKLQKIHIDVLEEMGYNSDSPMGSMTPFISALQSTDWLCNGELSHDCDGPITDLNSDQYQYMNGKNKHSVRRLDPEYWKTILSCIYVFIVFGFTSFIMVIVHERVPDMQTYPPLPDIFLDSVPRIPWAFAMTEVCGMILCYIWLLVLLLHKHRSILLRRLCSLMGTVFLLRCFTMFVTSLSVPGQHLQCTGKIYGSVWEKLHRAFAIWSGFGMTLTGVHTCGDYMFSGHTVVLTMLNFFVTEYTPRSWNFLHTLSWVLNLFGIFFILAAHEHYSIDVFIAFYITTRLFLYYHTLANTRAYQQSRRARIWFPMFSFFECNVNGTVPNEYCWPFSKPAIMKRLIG
UniProt P63302, whole entry, looked up: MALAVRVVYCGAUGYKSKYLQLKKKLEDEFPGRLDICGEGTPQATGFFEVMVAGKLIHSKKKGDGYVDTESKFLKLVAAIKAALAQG
UniProt Q14242: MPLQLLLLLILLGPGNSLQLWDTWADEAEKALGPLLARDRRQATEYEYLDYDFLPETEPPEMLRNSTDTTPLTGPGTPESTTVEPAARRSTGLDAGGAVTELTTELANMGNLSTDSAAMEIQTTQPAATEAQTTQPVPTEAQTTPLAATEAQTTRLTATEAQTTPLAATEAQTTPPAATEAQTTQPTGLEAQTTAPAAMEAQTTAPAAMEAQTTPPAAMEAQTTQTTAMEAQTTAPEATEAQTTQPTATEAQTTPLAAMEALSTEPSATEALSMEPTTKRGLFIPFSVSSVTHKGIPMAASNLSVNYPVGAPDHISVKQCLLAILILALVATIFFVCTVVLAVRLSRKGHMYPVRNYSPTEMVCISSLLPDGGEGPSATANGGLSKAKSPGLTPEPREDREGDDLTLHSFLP
UniProt Q9NRG7: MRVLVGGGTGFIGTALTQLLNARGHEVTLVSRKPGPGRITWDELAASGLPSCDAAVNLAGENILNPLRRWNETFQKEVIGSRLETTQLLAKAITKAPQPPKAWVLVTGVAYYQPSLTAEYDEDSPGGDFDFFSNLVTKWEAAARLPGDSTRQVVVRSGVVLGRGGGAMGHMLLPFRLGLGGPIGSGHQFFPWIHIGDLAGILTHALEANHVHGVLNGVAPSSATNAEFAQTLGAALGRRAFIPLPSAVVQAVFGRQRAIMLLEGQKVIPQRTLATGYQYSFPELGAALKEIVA
UniProt O15027: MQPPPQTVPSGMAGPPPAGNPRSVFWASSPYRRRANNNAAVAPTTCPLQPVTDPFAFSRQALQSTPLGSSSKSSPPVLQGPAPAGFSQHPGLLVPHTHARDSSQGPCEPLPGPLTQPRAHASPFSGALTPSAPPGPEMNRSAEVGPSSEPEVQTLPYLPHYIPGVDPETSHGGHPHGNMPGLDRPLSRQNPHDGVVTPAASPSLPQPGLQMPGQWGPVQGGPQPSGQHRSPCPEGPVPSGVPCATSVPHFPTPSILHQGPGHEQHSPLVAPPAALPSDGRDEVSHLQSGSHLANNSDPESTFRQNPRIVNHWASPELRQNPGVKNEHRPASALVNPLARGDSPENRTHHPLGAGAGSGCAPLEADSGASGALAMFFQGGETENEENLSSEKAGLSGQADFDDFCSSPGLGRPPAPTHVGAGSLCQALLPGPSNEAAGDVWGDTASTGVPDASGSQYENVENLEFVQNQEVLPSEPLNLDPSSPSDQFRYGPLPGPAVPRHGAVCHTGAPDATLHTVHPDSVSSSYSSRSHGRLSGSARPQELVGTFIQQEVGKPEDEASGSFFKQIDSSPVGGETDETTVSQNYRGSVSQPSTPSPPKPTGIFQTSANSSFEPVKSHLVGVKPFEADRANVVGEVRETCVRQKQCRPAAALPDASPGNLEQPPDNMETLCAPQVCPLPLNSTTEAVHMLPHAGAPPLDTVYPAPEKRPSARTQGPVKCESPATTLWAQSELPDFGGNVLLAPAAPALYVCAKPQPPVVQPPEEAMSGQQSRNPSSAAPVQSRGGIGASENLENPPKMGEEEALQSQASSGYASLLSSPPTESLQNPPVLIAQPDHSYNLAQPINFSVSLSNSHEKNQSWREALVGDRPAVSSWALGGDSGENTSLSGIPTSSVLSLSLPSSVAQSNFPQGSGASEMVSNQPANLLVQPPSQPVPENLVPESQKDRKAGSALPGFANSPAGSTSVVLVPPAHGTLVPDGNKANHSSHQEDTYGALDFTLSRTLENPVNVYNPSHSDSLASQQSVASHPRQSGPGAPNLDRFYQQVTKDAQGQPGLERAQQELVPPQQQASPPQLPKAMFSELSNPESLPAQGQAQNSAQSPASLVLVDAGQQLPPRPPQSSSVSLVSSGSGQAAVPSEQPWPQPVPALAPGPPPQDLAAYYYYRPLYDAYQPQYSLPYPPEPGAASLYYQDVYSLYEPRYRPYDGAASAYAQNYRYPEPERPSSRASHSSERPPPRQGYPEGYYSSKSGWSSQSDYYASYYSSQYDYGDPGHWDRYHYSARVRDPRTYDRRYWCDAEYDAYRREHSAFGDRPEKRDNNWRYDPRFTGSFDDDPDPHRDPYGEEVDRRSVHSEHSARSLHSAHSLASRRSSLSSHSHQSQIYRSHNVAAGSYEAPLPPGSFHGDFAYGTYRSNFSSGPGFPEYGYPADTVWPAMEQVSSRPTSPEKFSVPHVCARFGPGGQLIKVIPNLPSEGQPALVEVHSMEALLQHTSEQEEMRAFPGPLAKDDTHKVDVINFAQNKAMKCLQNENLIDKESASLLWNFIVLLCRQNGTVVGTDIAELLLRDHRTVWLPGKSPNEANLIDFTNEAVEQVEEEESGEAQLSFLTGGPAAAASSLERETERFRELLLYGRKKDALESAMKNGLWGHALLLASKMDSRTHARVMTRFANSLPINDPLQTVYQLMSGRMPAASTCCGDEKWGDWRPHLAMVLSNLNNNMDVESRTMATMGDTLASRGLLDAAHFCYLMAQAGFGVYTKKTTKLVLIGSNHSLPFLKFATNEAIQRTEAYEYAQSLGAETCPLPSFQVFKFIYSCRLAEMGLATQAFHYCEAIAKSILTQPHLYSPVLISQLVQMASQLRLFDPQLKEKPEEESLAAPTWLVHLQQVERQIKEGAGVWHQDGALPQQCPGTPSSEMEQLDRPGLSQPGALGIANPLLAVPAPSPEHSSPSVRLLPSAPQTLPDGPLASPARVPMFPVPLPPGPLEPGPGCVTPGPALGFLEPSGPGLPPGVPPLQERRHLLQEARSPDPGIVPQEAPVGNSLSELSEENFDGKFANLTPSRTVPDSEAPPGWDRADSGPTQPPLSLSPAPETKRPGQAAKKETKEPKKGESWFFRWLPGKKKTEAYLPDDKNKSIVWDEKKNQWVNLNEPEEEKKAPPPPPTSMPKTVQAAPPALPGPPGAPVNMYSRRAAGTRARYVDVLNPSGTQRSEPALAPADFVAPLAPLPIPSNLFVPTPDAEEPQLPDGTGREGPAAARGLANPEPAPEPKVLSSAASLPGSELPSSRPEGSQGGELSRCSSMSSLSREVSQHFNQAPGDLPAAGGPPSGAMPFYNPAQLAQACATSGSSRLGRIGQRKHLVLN

How the values were obtained:
Test in all cases: log2 fold change, soluble protein after heating vs DMSO (PISA); higher = thermal stabilisation; K562 lysate, 10 uM; active = over 0.2 and 3.5 SD of the protein, either way, in both replicates (recomputed)
vemurafenib = compound: CCCS(=O)(=O)Nc1ccc(F)c(C(=O)c2c[nH]c3ncc(-c4ccc(Cl)cc4)cc23)c1F [vemurafenib]
Summary of the method: (§1)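 Quantification was by TMTpro 16plex LC-MS/MS with equalised channel sums, applied to the supernatant after 21,000xg for 90 min. Samples were crude K562 extract at 1 mg/mL protein in PBS pH 7.4 with 1 mM MgCl2, treated with 10 μM compound for 30 min, heated for 3 min across 48°C-58°C, pooled and brought to 0.5% NP-40 at 4°C. Values are log-two fold changes in thermal stability relative to solvent controls, from duplicates.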

[1] = compound: CCCS(=O)(=O)Nc1ccc(F)c(C(=O)c2c[nH]c3ncc(Cl)cc23)c1F
Summary of the method: as §1

barasertib = compound: CCN(CCCOc1ccc2c(Nc3cc(CC(=O)Nc4cccc(F)c4)[nH]n3)ncnc2c1)CCOP(=O)(O)O [barasertib]
Summary of the method: as §1

[2] = compound: CC[C@@H]1C(=O)N(C)c2cnc(Nc3ccc(C(=O)NC4CCN(C)CC4)cc3OC)nc2N1C1CCCC1
Summary of the method: as §1

volasertib = compound: CC[C@@H]1C(=O)N(C)c2cnc(Nc3ccc(C(=O)N[C@H]4CC[C@H](N5CCN(CC6CC6)CC5)CC4)cc3OC)nc2N1C(C)C [volasertib]
Summary of the method: as §1

[3] = compound: CCn1c(C(=O)N(C2CC2)C2CC2)cc2c3c(ncn3C)c(Nc3cc(C)n(C)n3)nc21
Summary of the method: as §1

[4] = compound: CCn1cc(-c2ccnc3[nH]c(-c4cccc(CN(C)C)c4)cc23)c(-c2ccc(NC(=O)N(C)C)cc2)n1
Summary of the method: as §1

[5] = compound: CN1CCC(CNc2ccc3ncc(-c4cccc(OC(F)(F)F)c4)n3n2)CC1
Summary of the method: as §1

saracatinib = compound: CN1CCN(CCOc2cc(OC3CCOCC3)c3c(Nc4c(Cl)ccc5c4OCO5)ncnc3c2)CC1 [saracatinib]
Summary of the method: as §1

sotrastaurin = compound: CN1CCN(c2nc(C3=C(c4c[nH]c5ccccc45)C(=O)NC3=O)c3ccccc3n2)CC1 [sotrastaurin]
Summary of the method: as §1

Target | log2 fold change (vemurafenib) | log2 fold change [1] | log2 fold change (barasertib) | log2 fold change [2] | log2 fold change (volasertib) | log2 fold change [3] | log2 fold change [4] | log2 fold change [5] | log2 fold change (saracatinib) | log2 fold change (sotrastaurin)
SCFD1 (UniProt Q8WVM8) | inactive: 0.007 | inactive: 0.001 | inactive: 0.021 | inactive: -0.011 | inactive: -0.045 | inactive: 0.021 | inactive: -0.036 | inactive: -0.002 | inactive: 0.038 | inactive: 0.043
SEC24C (UniProt P53992) | inactive: 0.015 | inactive: 0.018 | inactive: 0.002 | inactive: -0.034 | inactive: -0.027 | inactive: -0.018 | inactive: -0.05 | inactive: 0.013 | inactive: 0.02 | inactive: -0.017
S100P (UniProt P25815) | inactive: 0.018 | inactive: -0.045 | inactive: 0.245 | inactive: 0.002 | inactive: 0.104 | inactive: 0.062 | inactive: 0.049 | inactive: -0.223 | inactive: -0.029 | inactive: -0.093
SARG (UniProt Q9BW04) | inactive: 0.035 | inactive: 0.019 | inactive: -0.01 | inactive: 0.092 | inactive: 0.024 | inactive: -0.013 | inactive: 0.002 | inactive: 0.012 | inactive: 0.006 | inactive: -0.014
SELENOS (UniProt Q9BQE4) | inactive: 0.097 | inactive: -0.015 | inactive: 0.003 | inactive: -0.036 | inactive: 0.066 | inactive: 0.02 | inactive: -0.059 | inactive: 0.005 | inactive: -0.047 | inactive: 0.042
SAMSN1 (UniProt Q9NSI8) | inactive: -0.008 | inactive: -0.015 | inactive: -0.035 | inactive: 0.039 | inactive: 0.011 | inactive: -0.014 | inactive: -0.024 | inactive: 0.031 | inactive: -0.016 | inactive: 0.009
SEMA4B (UniProt Q9NPR2) | inactive: 0.044 | inactive: 0 | inactive: -0.072 | inactive: 0.07 | inactive: -0.127 | inactive: -0.036 | inactive: 0.069 | inactive: 0.003 | inactive: 0.122 | inactive: 0.084
SCLT1 (UniProt Q96NL6) | inactive: 0.041 | inactive: -0.003 | inactive: 0.098 | inactive: -0.037 | inactive: -0.018 | inactive: -0.022 | inactive: 0.014 | inactive: 0.17 | inactive: -0.014 | inactive: 0.021
SEPSECS (UniProt Q9HD40) | inactive: 0.024 | inactive: -0.004 | inactive: -0.062 | inactive: 0.009 | inactive: 0.013 | inactive: -0.018 | inactive: 0.678 | inactive: 0.08 | inactive: 0.028 | inactive: -0.009
SAR1B (UniProt Q9Y6B6) | inactive: 0.034 | inactive: 0 | inactive: 0.165 | inactive: 0.04 | inactive: -0.042 | inactive: 0.017 | inactive: -0.017 | inactive: -0.09 | inactive: 0.041 | inactive: 0.047
SELENBP1 isoform 4 (UniProt Q13228) | inactive: -0.015 | inactive: 0.018 | inactive: -0.021 | inactive: 0.014 | inactive: 0.02 | inactive: -0.009 | inactive: 0.004 | inactive: 0.008 | inactive: -0.025 | inactive: -0.007
SCAF4 (UniProt O95104) | inactive: 0.018 | inactive: 0.071 | inactive: 0.032 | inactive: 0.017 | inactive: -0.03 | inactive: -0.008 | inactive: 0.002 | inactive: -0.011 | inactive: -0.015 | inactive: 0.052
SBDS (UniProt Q9Y3A5) | inactive: -0.027 | inactive: 0.002 | inactive: -0.023 | inactive: 0.019 | inactive: 0.005 | inactive: -0.036 | inactive: -0.077 | inactive: -0.005 | inactive: -0.018 | inactive: -0.005
SENP6 (UniProt Q9GZR1) | inactive: 0.063 | inactive: -0.01 | inactive: 0.007 | inactive: 0.04 | inactive: -0.065 | inactive: -0.044 | inactive: -0.038 | inactive: 0.016 | inactive: 0.028 | inactive: -0.006
SARM1 (UniProt Q6SZW1) | – | inactive: 0.054 | – | – | inactive: -0.061 | – | inactive: -0.227 | inactive: 0 | – | –
SCOC (UniProt Q9UIL1) | – | – | – | – | – | inactive: -0.131 | – | – | inactive: 0.086 | inactive: -0.185
SDCBP isoform 2 (UniProt O00560) | – | – | inactive: -0.053 | – | – | inactive: -0.126 | inactive: 0.041 | inactive: -0.191 | inactive: -0.221 | inactive: 0.03
SAC3D1 (UniProt A6NKF1) | – | – | inactive: 0.057 | – | – | – | inactive: 0.131 | inactive: -0.268 | – | inactive: 0.052
SAMD1 (UniProt Q6SPF0) | – | inactive: -0.007 | – | inactive: -0.067 | inactive: -0.065 | inactive: 0.016 | inactive: 0.009 | inactive: -0.397 | inactive: -0.094 | inactive: 0.065

Reprinted at random: 3 entries already listed
Target | log2 fold change (vemurafenib) | log2 fold change [1] | log2 fold change (barasertib) | log2 fold change [2] | log2 fold change (volasertib) | log2 fold change [3] | log2 fold change [4] | log2 fold change [5] | log2 fold change (saracatinib) | log2 fold change (sotrastaurin)
SAMD1 (UniProt Q6SPF0) | – | inactive: -0.007 | – | inactive: -0.067 | inactive: -0.065 | inactive: 0.016 | inactive: 0.009 | inactive: -0.397 | inactive: -0.094 | inactive: 0.065
SDCBP isoform 2 (UniProt O00560) | – | – | inactive: -0.053 | – | – | inactive: -0.126 | inactive: 0.041 | inactive: -0.191 | inactive: -0.221 | inactive: 0.03
SELENOS (UniProt Q9BQE4) | inactive: 0.097 | inactive: -0.015 | inactive: 0.003 | inactive: -0.036 | inactive: 0.066 | inactive: 0.02 | inactive: -0.059 | inactive: 0.005 | inactive: -0.047 | inactive: 0.042

Remaining list, next part

Target | log2 fold change (vemurafenib) | log2 fold change [1] | log2 fold change (barasertib) | log2 fold change [2] | log2 fold change (volasertib) | log2 fold change [3] | log2 fold change [4] | log2 fold change [5] | log2 fold change (saracatinib) | log2 fold change (sotrastaurin)
SBSN (UniProt Q6UWP8) | – | – | – | – | – | – | inactive: -0.008 | inactive: -0.235 | – | –
SAGE1 (UniProt Q9NXZ1) | – | – | – | inactive: 0.018 | – | inactive: 0.014 | inactive: -0.077 | inactive: -0.134 | inactive: 0.205 | inactive: -0.036
SEC31A (UniProt H0YAB3) | – | inactive: -0.036 | inactive: -0.037 | – | inactive: -0.026 | inactive: -0.039 | inactive: -0.025 | inactive: 0.028 | inactive: 0.004 | –
SALL1 (UniProt Q9NSC2) | – | – | – | inactive: 0.174 | – | – | inactive: 0.75 | inactive: -0.228 | – | –
SAFB2 (UniProt K7EQU4) | – | – | inactive: -0.188 | – | – | – | – | – | inactive: 0.185 | inactive: -0.015
SCNM1 (UniProt Q9BWG6) | – | inactive: 0.012 | – | inactive: 0.122 | active: 0.372 | inactive: 0.099 | inactive: -0.033 | inactive: -0.005 | inactive: -0.092 | inactive: -0.023
SCAND1 (UniProt P57086) | – | – | – | – | – | inactive: -0.003 | – | – | – | inactive: 0.003
SCARB2 isoform 2 (UniProt Q14108) | – | inactive: -0.063 | inactive: -0.085 | – | inactive: 0.052 | – | inactive: -0.156 | inactive: 0.069 | inactive: -0.025 | –
SENP7 (UniProt Q9BQF6) | – | – | – | inactive: -0.026 | – | inactive: -0.085 | inactive: -0.322 | inactive: 0.06 | inactive: -0.113 | inactive: 0.164
SAMD8 (UniProt Q96LT4) | – | – | – | – | – | inactive: 0.111 | – | – | – | –
SELENOW (UniProt P63302) | – | inactive: 0.05 | – | – | inactive: 0.079 | inactive: -0.021 | inactive: -0.087 | inactive: 0.214 | – | inactive: 0.104
SELENOI (UniProt Q9C0D9) | – | inactive: 0.052 | inactive: 0.067 | inactive: 0.058 | inactive: -0.076 | inactive: 0.029 | – | – | inactive: 0.032 | inactive: -0.086
SELPLG isoform 2 (UniProt Q14242) | – | inactive: -0.076 | – | – | inactive: 0.01 | – | – | – | – | –
SDR39U1 (UniProt Q9NRG7) | – | inactive: -0.025 | inactive: -0.089 | – | inactive: -0.24 | inactive: -0.028 | inactive: -0.058 | inactive: -0.124 | – | –
SDCCAG8 (UniProt S4R323) | – | – | – | – | – | inactive: 0.056 | – | – | – | inactive: -0.272
SDC3 (UniProt O75056) | – | – | – | – | – | inactive: -0.045 | – | – | inactive: 0.035 | inactive: 0.098
SEC16A isoform 3 (UniProt O15027) | – | – | – | – | – | inactive: 0.231 | – | – | inactive: 0.068 | –
SELENON (UniProt Q9NZV5) | – | – | – | – | – | – | – | – | inactive: -0.328 | –
